Reference: PubChem BioAssay AID2551 (National Center for Advancing Translational Sciences (NCATS), 2010)
Among all 310,000 compounds or so, about 17,000 (5.5%) were called active. Inconclusive results, whose numbers are uncertain, are shown with a selection of clear calls. Calls follow the shape of the dose curve; as a rule, active = well fitted inhibition curve with a large enough effect; inconclusive = small, poorly fitted or top-dose-only effect, or effect the other way; inactive = no such curve, though single readings can be large or run the other way. A potency beside an inconclusive call is a rough fit, not a confirmed value.

Protein sequences, listed by entry. Tags and fused reporters are not part of them. Lines headed by an entry give the natural chain unless they say otherwise; changes in a name come on top.
UniProt P51450: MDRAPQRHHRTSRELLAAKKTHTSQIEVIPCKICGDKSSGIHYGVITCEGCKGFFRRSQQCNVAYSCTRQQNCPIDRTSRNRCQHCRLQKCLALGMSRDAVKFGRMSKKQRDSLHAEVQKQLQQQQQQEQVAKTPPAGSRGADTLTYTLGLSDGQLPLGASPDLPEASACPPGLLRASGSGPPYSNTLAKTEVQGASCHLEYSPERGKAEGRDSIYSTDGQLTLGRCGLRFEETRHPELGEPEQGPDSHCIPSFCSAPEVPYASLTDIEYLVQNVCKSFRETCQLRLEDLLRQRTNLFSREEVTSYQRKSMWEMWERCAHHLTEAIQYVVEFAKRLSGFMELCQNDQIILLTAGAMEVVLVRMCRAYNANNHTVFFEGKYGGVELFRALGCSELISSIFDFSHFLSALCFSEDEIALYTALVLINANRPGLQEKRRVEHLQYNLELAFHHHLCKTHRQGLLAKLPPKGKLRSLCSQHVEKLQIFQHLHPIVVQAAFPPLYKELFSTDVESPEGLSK

What follows are molecules tested against Nuclear receptor ROR-gamma (Mus musculus) (UniProt P51450) (assay: qHTS for inhibitors of ROR gamma transcriptional activity). Conditions: Drosophila S2 Gal4-RORgamma UAS-luciferase reporter, 20 h; activity change, negative = inhibition: at 53.6 µM (top of the series).
Procedure, shortened: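 Drosophila S2 cells stably expressing Gal4-DBD/mouse RORγ fusion under metallothionein promoter plus UAS-luciferase; compound 1 h, then 700 uM CuSO4 induction for 20 h at ambient temperature; inhibition read as reduced luminescence.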
% is scaled to controls: 0 for no effect and ±100 for the full control effect; potency is read from the fitted curve at half-maximal effect.
Also: nearly all actives have a fitted effect of over 60% in size.

| SMILES | activity change, negative = inhibition | Potency |
| --- | --- | --- |
| CCN(CC)C(=O)COc1ccc2c(c1)C(=O)CC(C)(C)O2 | inactive: 17.3% |  |
| CC(C)N1CCC2(CC1)C(C#N)=C(N)NC(S)=C2C#N |  | inconclusive: 35.5 µM [inhibitor, single point] |
| CSc1nsc(NC(=O)OCc2ccc(Cl)cc2)n1 |  | inconclusive: 22.4 µM [activator, single point] |
| Cc1ccc(S(=O)(=O)/N=C2\C=C(Nc3cccc(C(=O)O)c3)C(=O)c3ccccc32)c(C)c1 |  | inconclusive: 22.4 µM [inhibitor, single point] |
| C=CCNC(=S)Nc1ccc(Br)cc1F |  | active: 15.8 µM |
| COc1ccc2cc(-c3cc(C(=O)OCC(=O)Nc4c(C)n(C)n(-c5ccccc5)c4=O)c4ccccc4n3)ccc2c1 |  | active: 7.08 µM |
| CC(C)(C#N)c1cc(Cn2cncn2)cc(C(C)(C)C#N)c1 |  | inactive |
| Nc1ccc(Nc2ccccc2)cc1 |  | inconclusive: 8.91 µM [inhibitor, partial curve] |
| Cc1oc(-c2ccccc2F)nc1CS(=O)(=O)CC(=O)NCc1ccco1 | inactive: 19.5% |  |
| CCOC(=O)Cc1cc(=O)n2[nH]c(-c3ccccc3)c(-c3ccccc3)c2n1 |  | inconclusive: 17.8 µM [inhibitor, partial curve, poor fit] |
| COc1cc(NC(=O)c2cccs2)ccc1NC(=O)Cc1ccccc1 |  | inconclusive: 4.47 µM [activator, full curve, poor fit] |
| COc1ccccc1C(=O)NC(=S)Nc1ccc(N2CCCC2)cc1 |  | inconclusive: 3.16 µM [inhibitor, full curve] |
| COc1ccc(C(=O)Nc2ccc(SC(F)F)cc2)cc1 |  | inconclusive: 2.24 µM [activator, partial curve] |
| CC(C)c1nc2c(c(=O)c3ccccc3n2C)c(=O)n1-c1ccc(F)cc1 |  | inconclusive: 2.82 µM [activator, full curve] |
| CC(=O)c1ccc(N2CCN(C(=O)C3CCCN(S(=O)(=O)c4cnc[nH]4)C3)CC2)cc1 (configuration not stated) | inactive: 5.69% |  |
| S=c1[nH]nc(CN2CCCCC2)n1-c1ccc(Cl)cc1 |  | active: 7.08 µM |
| COC(=O)c1ccccc1NC(=O)C1CC(=O)N(c2ccc(C)cc2)C1 (configuration not stated) |  | inconclusive: 35.5 µM [inhibitor, single point] |
| CCc1nc(NCCC(C)C)c2nnn(Cc3ccccc3)c2n1 |  | inconclusive: 35.5 µM [inhibitor, single point] |
| CCOC(=O)/C(C#N)=C/C1=C(N2CCCC2)CC(C)(CC)OC1 (configuration not stated) | inactive: -1.92% |  |
| C=CCn1c(=O)c(C(=O)NCc2ccc3c(c2)OCO3)c(O)c2cc(OC)c(OC)cc21 | inactive: -17.4% |  |
| Cc1cc(S(=O)(=O)N2CCOCC2)ccc1OCC(=O)Nc1ccc(Br)cc1F | inactive: -3.01% |  |
| Cn1c(N)c(C(=O)COC(=O)c2cc(-c3ccccc3)nc3ccccc23)c(=O)n(C)c1=O |  | inconclusive: 3.16 µM [activator, single point] |
| Cc1ccc(N=Nc2c(C)[nH]n(-c3ccccc3)c2=O)c(C)c1 |  | inconclusive: 15.8 µM [inhibitor, single point] |
| CCN(CC)S(=O)(=O)c1ccc(C(=O)Nc2nnc(NC(=S)Nc3ccccc3)s2)cc1 |  | inconclusive: 1 µM [inhibitor, full curve] |

For reference, part of the list above.

| SMILES | activity change, negative = inhibition | Potency |
| --- | --- | --- |
| C=CCNC(=S)Nc1ccc(Br)cc1F |  | active: 15.8 µM |
| COc1ccc2cc(-c3cc(C(=O)OCC(=O)Nc4c(C)n(C)n(-c5ccccc5)c4=O)c4ccccc4n3)ccc2c1 |  | active: 7.08 µM |

(list continues)

| SMILES | activity change, negative = inhibition | Potency |
| --- | --- | --- |
| CCCCN(S(=O)(=O)c1ccccc1)S(=O)(=O)c1ccccc1 |  | inconclusive: 15.8 µM [inhibitor, single point] |
| OCCCNc1ncnc2sc3c(c12)CCN(Cc1ccccc1)C3 | inactive: 8.72% |  |
| O=C(NCCO)c1ccc2c3n(nc2c1)-c1ccccc1CO3 |  | active: 4.47 µM |
| CCn1c(=O)cc(SCC(=O)Nc2ccc3c(c2)OCO3)c2ccccc21 | inactive: 31.5% |  |
| C(=N\Nc1nc2ccccc2[nH]1)/c1ccccn1 |  | active: 0.562 µM |
| COc1cc(/C=C/C(=O)c2ccc(Cl)s2)cc(OC)c1O |  | inconclusive: 35.5 µM [inhibitor, single point] |
| N#CC1=C(N)NC(=S)C(C(N)=O)C1c1ccc([N+](=O)[O-])cc1 (configuration not stated) |  | inconclusive: 25.1 µM [inhibitor, single point] |
| O=C(Nc1nnc(-c2ccco2)o1)C1CCCCC1 |  | inconclusive: 25.1 µM [inhibitor, single point] |
| O=C(NCCN1CCCC(O)C1)c1cc(COc2c(F)cccc2F)on1 (configuration not stated) | inactive: 4.43% |  |
| O=C(Nc1ccc(NC(=O)C2CC2)nc1)c1ccncc1 |  | inconclusive: 12.6 µM [activator, single point] |
| CCOC(=O)N/N=C/c1ccc(OCCSc2ccc(Cl)cc2)c(OC)c1 |  | inconclusive: 11.2 µM [activator, single point] |
| Cc1ccc(-c2nc3c(Cl)cc(Cl)cc3c(=O)n2O)cc1 |  | inconclusive: 35.5 µM [inhibitor, single point] |
| Cc1cc(C)c2c(NC(=S)NC(=O)c3ccccc3)n[nH]c2n1 |  | active: 5.62 µM |
| c1ccc2[nH]c(-c3ccnc4ccccc34)nc2c1 |  | inactive |
| COc1ccc(C(=O)Nc2ccccc2C(=O)O)cc1Cl |  | inconclusive: 2.82 µM [activator, single point] |
| COC(=O)c1ccc(C(=O)OC)c(NC(=O)CN(c2ccc3c(c2)OCO3)S(C)(=O)=O)c1 | inactive: 6.67% |  |
| Cc1ccccc1OCCN1C(=O)c2ccccc2C1=O | inactive: 13.5% |  |
| CCn1c2ccccc2c2cc(NC(=O)CSc3nnc(-c4ccc(OC)c(OC)c4)n3N)ccc21 |  | inconclusive: 35.5 µM [activator, single point] |
| Cc1ccc(SCc2c(C(=O)N/N=C/c3ccoc3)nnn2-c2nonc2N)cc1 |  | active: 7.94 µM |
| CCCc1ccc2oc(C(=O)N(Cc3nccn3C)C(C)C)c(C)c2c1 |  | active: 11.2 µM |
| CCOC(=O)N1CCN(c2cc(C)c([N+](=O)[O-])cc2F)CC1 |  | inconclusive: 31.6 µM [activator, single point] |
| CN(C)c1cccc(C(=O)N/N=C/c2ccccc2F)c1 |  | inconclusive: 10 µM [inhibitor, partial curve, poor fit] |
| COc1ccccc1OCC(=O)Nc1cccc(N(C)S(C)(=O)=O)c1 |  | inconclusive: 31.6 µM [activator, single point] |
